The values that follow come from paper PMC10916400, “Effect of the aggregated protein dye YAT2150 on Leishmania parasite viability” (Antimicrobial Agents and Chemotherapy, 2024).

This data set concerns L. infantum promastigotes. Format: cell-based, Leishmania infantum. The settings on record: for Selectivity index (CC50/IC50): CC50 in human umbilical vein endothelial cells / IC50 for promastigotes; for fold by which the IC50 of YAT2150 is lower than that reported in promastigotes for the antileishmanial agent: YAT2150 IC50 0.52 µM vs reported IC50 of pentamidine (34), miltefosine (35), paromomycin (36). As to the method:
L. infantum (MHOM/ES/2016/CATB101) promastigotes were maintained at 26°C in complete Schneider’s medium (Schneider’s insect medium supplemented with 10% FBS, 25 µg/mL gentamycin, 1% penicillin-streptomycin, and 1% sterile human urine, pH 6.7). For growth inhibition assays, promastigotes were used in the logarithmic growth phase, whereas for the infection of macrophages and generation of amastigotes they were used in the stationary phase. Axenic amastigotes were obtained following established protocols ([40], [57][–][59]); briefly, 1 × 10^7 promastigotes/mL in stationary phase were cultured in Schneider’s insect medium supplemented with 20% FBS, 25 µg/mL gentamycin, and 3.9 g/L of 2-(N-morpholino)ethanesulfonic acid, at pH 5.4 and 37°C. After 48 h, the typical rounded morphology of axenic amastigotes and their flagellum shortening could be observed. This culture was used within a week after its preparation.
In 96-well microtiter plates (Nunclon Delta surface; Thermo Fisher Scientific Inc.), serial dilutions (1:2) of the drugs or peptides were performed, either free or loaded in nanoformulations, in 100 µL of complete Schneider’s medium, to which one volume of 2 × 10^6 logarithmic growth-phase L. infantum promastigotes/mL in the same buffer was added. After 48 h, resazurin sodium salt was incorporated at a final concentration of 0.00125% and the plates were incubated at 26°C for another 24 h, when fluorescence from resorufin was measured as described above.

Take `CC1=CC2Cc3nc4cc(Cl)ccc4c(NCCCCCCCNc4c5c(nc6ccccc46)CCCC5)c3C(C1)C2` (stereo not drawn) [HUP7TH]: the “Selectivity index (CC50/IC50)” value was 6.4.
Turning to `CC1=CC2Cc3nc4ccccc4c(NCCCCCCCCCCNc4c5c(nc6ccccc46)CCCC5)c3C(C1)C2` (stereo not drawn) [HUPH10TH], the “Selectivity index (CC50/IC50)” value is 4.7.
With `CC1=CC2Cc3nc4cc(Cl)ccc4c(NCCCN(C)CCCNc4c5c(nc6ccccc46)CCCC5)c3C(C1)C2` (stereo not drawn) [HUPNTH], the “Selectivity index (CC50/IC50)” value amounted to 1.4.
`CCCCCCCCCCCCCCCCOP(=O)([O-])OCC[N+](C)(C)C` [miltefosine, reference compound]: the “fold by which the IC50 of YAT2150 is lower than that reported in promastigotes for the antileishmanial agent” value is ~20 fold.
In the case of `NC[C@@H]1O[C@H](O[C@H]2[C@@H](O)[C@H](O[C@@H]3[C@@H](O)[C@H](N)C[C@H](N)[C@H]3O[C@H]3O[C@H](CO)[C@@H](O)[C@H](O)[C@H]3N)O[C@@H]2CO)[C@H](N)[C@@H](O)[C@@H]1O` [paromomycin, reference compound], the “fold by which the IC50 of YAT2150 is lower than that reported in promastigotes for the antileishmanial agent” value is ~542 fold.
The same measure, in the same setting: as for `N=C(N)c1ccc(OCCCCCOc2ccc(C(=N)N)cc2)cc1` [pentamidine, reference compound], the entry is “ca. 54 fold”.
